Measurements reported in US20250009924A1, “Indane Derivatives for Malodor Counteraction” (Firmenich SA, priority 2015, published 2025).

Assay: Air dilution olfactometry sensory panel, indole vs indole + compound
Format: in vivo, human
Settings: iso-intense levels (medium perceived intensity)
Protocol: Air dilution olfactometry was used to measure all psychophysical data of individual and mixed odorants. Odorized flows of air with precisely set concentrations were prepared by the evaporation of a known flux of odorant in a determined flow of air. The flux of odorant was delivered through a microsyringe operated by a calibrated micromotor into a heated vessel under a steady nitrogen flow. The odorant was vaporized and swept away by the nitrogen, and this primary flow was later diluted with humidified air to the desired concentration. Odorants can be presented one by one in olfactometers (see as a reference “Multidimensional visualization of physical and perceptual data leading to a creative approach in fragrance development”, C. Vuilleumier, M. van de Waal, H. Fontannaz, I. Cayeux and P. A. Rebetez, in Perfumer & Flavourist, 33, 55 (2008)); alternatively, a machine blending up to 12 flows of odorants in variable and adjustable proportions could be used. A sniffing outlet delivered a continuous and adjustable odorized air flow. The upper working limit was determined by the vapor pressure of the odorants at room temperature. The odorized flow was delivered at a temperature of 26° C., close to the temperature within the nose. The combination of air (540 l/h) and nitrogen (60 l/h) represented a total gas flow of 600 l/h with a relative humidity of 50%. The speed of injection of the solutions in the evaporation chamber was modulated and controlled for each subject and adjusted to obtain a medium perceived intensity (see above reference, for instance FIG. 4).
Standardized psychophysical procedures were used to determine olfactory detection thresholds (triangle testing) or perceived intensity, after a training period (see above reference).
A method was designed as an iterative process to obtain dose-response relationship and odor detection threshold of perfumery ingredients or malodorants with a minimum number of experiments (see FIG. 5 in the above reference).
FIG. 2 reports the radar plot of indole alone and indole+compound 1 obtained with a panel of 13 persons using a sensory protocol to evaluate the potential antagonists versus indole. The protocol involves two steps: • Step 1: the participants evaluated the tested ingredients and indole independently to adjust their individualized concentrations by changing the rate of injection (see above description and reference) to elicit a medium intensity perception for each chemical. These concentrations, corresponding to iso-intense levels, were applied in the second step of the process. The range of concentrations to be submitted to subjects was determined from dose-response relationships for the selected ingredients and indole. In the present experiment the molar ratio Compound 1/indole varied according to the individuals from about 1/1 to 10/1 (typical preferred individual range is between 2.5/1 and 4.5/1). • Step 2: Blind sensory evaluations were set; no information was disclosed to the participants on the submitted odorous stimuli. The subjects had to evaluate first indole alone at its individualized concentration and rate the following three descriptors on a linear labeled scale: • Pleasantness (From «Very unpleasant» to «Very pleasant») • Freshness (From «No Freshness» to «Very fresh») • Malodor character: Animal/Fecal/Tar (From «No . . . » to «Very . . . »)
The next submission, 30 seconds after the previous one to avoid odor adaptation, involved the simultaneous injection of indole and of the tested ingredient at individualized concentrations. The same descriptors were rated.

First: Cc1ccc2c(c1)CC(CO)C2 (stereo not shown) [Compound 4, (5-methyl-2,3-dihydro-1H-inden-2-yl)methanol]
Second: Cc1ccc2c(c1)CC(C)(CO)C2 (stereo not shown) [Compound 1, 2,5-dimethyl-2-indanemethanol]
The “Compound/Indole, median of individual molar concentrations ratios” value of the first is higher: 12.1 for the first, 3.0 for the second.

Going from `CC(=O)OCC1(C)Cc2ccccc2C1` [Compound 5, (2-methyl-2,3-dihydro-1H-inden-2-yl)methyl acetate] to `CC1(CO)Cc2ccccc2C1` [Compound 3, (2-methyl-2,3-dihydro-1H-inden-2-yl)methanol], the “Compound/Indole, median of individual molar concentrations ratios” value falls from 51.1 to 26.5.

Compared with `COCC1(C)Cc2ccc(C)cc2C1` (stereo not shown) [Compound 2, (2,5-dimethyl-2,3-dihydro-1H-inden-2-yl)methyl methyl ether], `CC(=O)C1(C)Cc2ccc(C)cc2C1` (stereo not shown) [Compound 6, 1-(2,5-dimethyl-2,3-dihydro-1H-inden-2-yl)ethanone] is lower in “Compound/Indole, median of individual molar concentrations ratios” value: 23.9 for the first, 10.7 for the second.

With `Cc1cc(C)c2c(c1)CC(C)(CO)C2` (stereo not shown) [Compound 16, (2,4,6-trimethyl-2,3-dihydro-1H-inden-2-yl)methanol] the “Compound/Indole, median of individual molar concentrations ratios” value was 4.9.
